Patent US20090304686A1, “INTERFERING IN ACTIVATION OF AN IMMUNE CELL BY INFLUENCING INTERACTION OF LAIR AND COLLAGEN” (UNIVERSOTAIR MEDISCH CENTRUM UTRECHT, priority 2006, published 2009)

Legend:
[1] = molecular target: collagen I (purified, Sigma; acid-soluble human collagen type I in BIAcore) (human); assay: blocking of adhesion of hLAIR-1 K562 cells to plate-bound collagen I by supernatant with wild-type LAIR-2
[2] = molecular target: collagen I (purified, Sigma; acid-soluble human collagen type I in BIAcore) (human); assay: blocking assay: coated collagen I pre-incubated with concentrated supernatant, blocked partner hLAIR-1 on K562 cells
[3] = molecular target: collagen I (purified, Sigma; acid-soluble human collagen type I in BIAcore) (human); assay: adhesion of transfected K562 cells to plate-bound collagen
[4] = molecular target: collagen II (purified, Chemicon International); assay: as above
[5] = molecular target: collagen I (purified, Sigma; acid-soluble human collagen type I in BIAcore) (human); assay: precipitation with insoluble collagen I fibrils from cell lysates, Western blot with anti-hLAIR-1 mAbs
[6] = molecular target: collagen I (purified, Sigma; acid-soluble human collagen type I in BIAcore) (human); assay: cell spreading on immobilized collagen I, microscopy

B1: LAIR-2 (wild-type, secreted/soluble protein) (receptor, human, UniProt Q6ISS4-2 22-135, looked up)
chain: QEGALPRPSISAEPGTVISPGSHVTFMCRGPVGVQTFRLEREDRAKYKDSYNVFRLGPSESEARFHIDSVSEGNAGLYRCLYYKPPGWSEHSDFLELLVKGTVPGTEASGFDAP
[1]
  binding: binds
[2]
  binding: binds

B2: human LAIR-1 (hLAIR-1a) expressed on cells (receptor, UniProt Q6GTX8 22-287, looked up)
chain: QEEDLPRPSISAEPGTVIPLGSHVTFVCRGPVGVQTFRLERDSRSTYNDTEDVSQASPSESEARFRIDSVREGNAGLYRCIYYKPPKWSEQSDYLELLVKESSGGPDSPDTEPGSSAGPTQRPSDNSHNEHAPASQGLKAEHLYILIGVSVVFLFCLLLLVLFCLHRQNQIKQGPPRSKDEEQKPQQRPDLAVDVLERTADKATVNGLPEKDRETDTSALAAGSSQEVTYAQLDHWALTQRTARAVSPQSTKPMAESITYAAVARH
[3]
  binding: binds
[4]
  binding: binds
[5]
  binding: binds

B3: mouse LAIR-1 (mLAIR-1a) expressed on K562 cells (receptor, UniProt Q8BG84 22-263, looked up)
chain: QEGSLPDITIFPNSSLMISQGTFVTVVCSYSDKHDLYNMVRLEKDGSTFMEKSTEPYKTEDEFEIGPVNETITGHYSCIYSKGITWSERSKTLELKVIKENVIQTPAPGPTSDTSWLKTYSIYIFTVVSVIFLLCLSALLFCFLRHRQKKQGLPNNKRQQQRPEERLNLATNGLEMTPDIVADDRLPEDRWTETWTPVAGDLQEVTYIQLDHHSLTQRAVGAVTSQSTDMAESSTYAAIIRH
[6]
  binding: binds

These are yes or no findings as the source states them, for the method shown. A result given as binding can be weak or reduced; the word gives no strength.
